Patent EP2787958B1, “CHELIDONIUM MAJUS EXTRACTS AND THEIR USE IN THE TREATMENT OF SKIN DISORDERS AND PROMOTION OF SKIN REGENERATION” (priority 2011, dated 2013)
At least one compound was matched to its structure with a doubt left.

Experiments:
[1] = test system: collagen produced by HDF cells; test: Quantity of collagen produced by the cells (elution of Sirius Red)
interleukin 1β (IL-1β) = test: Inflammatory cytokines in cell supernatant (Mosaic ELISA microarray): IL-1β; format: cell-based, Human; settings: 1-10 µM
Protocol: (§1) The inflammatory cytokines, CD40 ligand (CD40L), interferon γ (INF-γ), interleukin 1α (IL-1α), interleukin 1β (IL-1β), interleukin 6 (IL-6), interleukin 8 (IL-8), interleukin 17 (IL-17) and tumour necrosis factor α (TNF-α) were determined qualitatively and quantitatively. Each measurement was performed in duplicate using a Mosaic™ ELISA protein microarray assay system from R&D System in accordance with the supplier's instructions. Furthermore, with the aim of obtaining a correlation model between light signal intensity and cytokine concentration, a calibration curve using 6 concentrations was performed for each of them. Analysis of the data was performed using the dedicated Q-View™ Imager software package from Quansys Biosciences

[2] = Anti-radical activity (decay of the DPPH radical); format: biochemical; settings: for Anti-radical (skin protective): 24 hours
Protocol: With regard to assays aimed at evaluating anti-radical activity, a chemical test was used where the decay of the diphenylpicrylhydrazyl (DPPH) radical is assessed in the absence or in the presence of the test substances. Indeed, the DPPH radical is used to test the ability of substances to act as free radical scavengers. DPPH in solution has a purple colour with a maximum absorbance peak at 517 nm which changes to yellow-colourless when this radical extracts a hydrogen atom from a radical scavenger to give rise to the reduced form DPPH-H. The assay has been conducted in quadruplicate in 96 well microplates (SARSTEDT Tissue Culture Plate 96-well flat bottom cell+). 50 µl of an ethanol solution of the test substance at 2X concentration and then 50 µl of a 200 µM solution of DPPH (MW 168,18, Aldrich 2,2-di(4-tert-octylphenyl)-1-picrylhydrazyl, free radical Lot# MKBF7574V Cat N° 257621-100 mg) have been added to each well of the microplate. A positive control consisting of 0.1 mM vitamin C and a negative control consisting of ethanol alone were included in each microplate. After 30 minutes from the addition of DPPH, photographs of the plates were taken (Canon PowerShot A610 5.0 Mpixels) and read spectrophotometrically at 530 nm.
Based on the analysis of the results reported in Table 9, some substances were selected for further characterisation of their anti-radical activity. For the selected substances, dose-activity curves were obtained and the IC50 value were computed using a non-linear regression model with the Hill equation at variable slope. Such substances had been selected due to both their anti-radical potential and the easiness of their isolation/production. The selection of substances was made in view of cosmetics applications. Moreover their activity on human dermal fibroblasts (HDF) is expected to be useful also for the development of dermatological medications. The selected substances are discussed below.

interleukin 6 (IL-6) = test: Inflammatory cytokines in cell supernatant (Mosaic ELISA microarray): IL-6; format: cell-based, Human; settings: 1-10 µM
Protocol: as §1

HDF cells [3] = test: Evaluation of cell proliferation (counting of Sirius Red stained cells in photographs)
HDF cells [4] = test: Summary of uses and toxic effects deduced from the cell assays (Table 1); format: cell-based, Human; settings: 24 hours
Protocol: Antiradical (skin protective): this is deduced from the free radical scavenger effects.
Revitalizing: this is deduced from the increased mitochondrial dehydrogenase effect.
Cytoprotective, with regard to oxidative damage (antioxidant, anti-inflammatory and anti-ageing): this is deduced from antagonising the stimulation of IL-1β and/or IL-6 induced by 100 µM H2O2 and from the absence of changes in cell morphology similar to the ones due to cell senescence.
Wound healing: this is deduced from the effect of inhibiting the production of IL-1β and by the effect of stimulating cell proliferation under standard growth conditions.
Cytotoxicity: this is deduced from the effect of reducing mitochondrial dehydrogenase activity or from the presence of morphologies characteristic of cell senescence.
Irritation: this is deduced from the effect of increased production of IL-6 and/or IL-1β under standard growth conditions.
Said uses in the fields of medicine and cosmetics or the toxic effects of the substances of the invention at a given dosage, for 24 hours, are summarized in Table 1 below.

[5] = test system: Human dermal fibroblasts (HDF); test: Mitochondrial dehydrogenase activity (WST-1 formazan assay) in HDF cells; settings: for Revitalizing agent: 24 hours
[6] = Dose 1 µm (coptisine: 1 pm [sic])

C[n+]1cc2c3c(ccc2c2ccc4cc5c(cc4c21)OCO5)OCO3 [sanguinarine]
collagen production (effect in words) ([1]; 1-10 µM (1 µM and 10 µM), 34 ng/ml TGF-β1): stimulates collagen production in a dose-dependent manner | collagen production (effect in words) ([1]; 1-10 µM (1 µM and 10 µM), 100 µM H2O2): stimulates collagen production in a dose-dependent manner | collagen production (effect in words) ([1]; 1-10 µM, standard conditions): stimulates collagen production in a dose-dependent manner | IL-1β production (effect in words) (interleukin 1β (IL-1β); 34 ng/ml TGF-β1): stimulates IL-1β production in a dose-dependent manner | IL-1β production (effect in words) (interleukin 1β (IL-1β); 100 µM H2O2): stimulates IL-1β production in a dose-dependent manner | IL-1β production (effect in words) (interleukin 1β (IL-1β); standard conditions): stimulates IL-1β production in a dose-dependent manner | % DPPH activity ([2]; 10mM, 30 minutes): 172% | Anti-radical (skin protective) [2, 6]: No | Anti-radical (skin protective) ([2]; Dose 10 µm): No | IL-6 production (effect in words) (interleukin 6 (IL-6); 34 ng/ml TGF-β1): stimulates IL-6 production in a dose-dependent manner | IL-6 production (effect in words) (interleukin 6 (IL-6); 100 µM H2O2): stimulates IL-6 production in a dose-dependent manner | IL-6 production (effect in words) (interleukin 6 (IL-6); standard conditions): stimulates IL-6 production in a dose-dependent manner | cell proliferation (effect in words) (HDF cells [3]; 1 µM): dose-dependent inhibition of cell proliferation | cell proliferation (effect in words) (HDF cells [3]; 10 µM): complete cell death | Anti-fibrotic (prevention of scar formation, also from acne) (HDF cells [4]; [6]): No | Cytoprotective (antioxidant, anti-inflammatory and anti-ageing; useful also in the treatment of acne) (HDF cells [4]; [6]): No | Wound-healing (HDF cells [4]; [6]): No | Anti-fibrotic (prevention of scar formation, also from acne) (HDF cells [4]; Dose 10 µm): No | Cytoprotective (antioxidant, anti-inflammatory and anti-ageing; useful also in the treatment of acne) (HDF cells [4]; Dose 10 µm): No | Wound-healing (HDF cells [4]; Dose 10 µm): No | Revitalizing agent [5, 6]: No | Revitalizing agent ([5]; Dose 10 µm): No | inhibitory power toward the mitochondrial dehydrogenase activity ([5]; skin fibroblast cells and/or keratinocytes): marked inhibitory power
